Test results from US7285664B2, “Heterocyclic or benzenic derivatives of lipoic acid, their preparation and their use as medicaments” (S.C.R.A.S. Societe de Conseils de Recherches et …, priority 2000, dated 2007).
pIC50: −log10 of the molar value. Structures can show the parent of a compound that is named as a salt. Some results were stated once for a whole list of compounds, not compound by compound.

Each molecule was assayed against T1, neuronal constitutive NO synthase (Rattus norvegicus, UniProt P29476) (assay: Effects on neuronal constitutive NO synthase of a rat's cerebellum ([3H]L-arginine to [3H]L-citrulline conversion)). Details: rat cerebellum homogenate; conversion of [3H]L-arginine to [3H]L-citrulline; 15 minutes.
T1 construct: The reaction is initiated by adding 50 μl of homogenate; from tissue; host or cells: cerebellum of Sprague-Dawley rats (Charles River), homogenate centrifuged at 21000 g
Format: biochemical
`NC(=Nc1cccc(CN2CCN(C(=O)CCCCC3CCSS3)CC2)c1)c1cccs1` (stereo not drawn) [Example 3, N′-[3-({4-[5-(1,2-dithiolan-3-yl)pentanoyl]-1-piperazinyl}methyl)phenyl]-2-thiophenecarboximidamide hydrochloride] gave a pIC50 of over 5.35. With `NCc1cc(N=C(N)c2cccs2)ccc1N1CCN(C(=O)CCCCC2CCSS2)CC1` (stereo not drawn) [Example 14, N′-(3-(aminomethyl)-4-{4-[5-(1,2-dithiolan-3-yl)pentanoyl]-1-piperazinyl}phenyl)-2-thiophenecarboximidamide] the pIC50 was over 5.35. Work on `NC(=Nc1cccc(CN2CCN(C(=O)NCCCCC3CCSS3)CC2)c1)c1cccs1` (stereo not drawn) [Example 11, 4-(3-{[amino(2-thienyl)methylidene]amino}benzyl)-N-[4-(1,2-dithiolan-3-yl)butyl]-1-piperazinecarboxamide] yielded a pIC50 of over 5.35. For `NC(=Nc1ccc(N2CCN(C(=O)NCCCCC3CCSS3)CC2)cc1)c1cccs1` (stereo not drawn) [Example 5, 4-(4-{[amino(2-thienyl)methylidene]amino}phenyl)-N-[4-(1,2-dithiolan-3-yl)butyl]-1-piperazinecarboxamide], the pIC50 was over 5.35. For `NC(=Nc1cccc(CN2CCN(C(=O)CC3CCSS3)CC2)c1)c1cccs1` (stereo not drawn) [Example 4, N′-[3-({4-[2-(1,2-dithiolan-3-yl)acetyl]-1-piperazinyl}methyl)phenyl]-2-thiophenecarboximidamide], the pIC50 was over 5.35. In the case of `NC(=Nc1ccc(N2CCN(C(=O)CCCCC3CCSS3)CC2)cc1)c1cccs1` (stereo not drawn) [Example 1, N′-(4-{4-[5-(1,2-dithiolan-3-yl)pentanoyl]-1-piperazinyl)phenyl)-2-thiophenecarboximidamide hydrochloride], the pIC50 was over 5.35. Molecule `NC(=Nc1cccc(N2CCN(C(=O)CCCCC3CCSS3)CC2)c1)c1cccs1` (stereo not drawn) [Example 12, N′-(3-{4-[5-(1,2-dithiolan-3-yl)pentanoyl]-1-piperazinyl)phenyl)-2-thiophenecarboximidamide] has a pIC50 of over 5.35. Work on `NC(=Nc1ccc(N2CCN(C(=O)CC3CCSS3)CC2)cc1)c1cccs1` (stereo not drawn) [Example 2, N′-(4-{4-[2-(1,2-dithiolan-3-yl)acetyl]-1-piperazinyl}phenyl)-2-thiophenecarboximidamide] yielded a pIC50 of over 5.35. `NC(=Nc1cccc(CNC2CCN(C(=O)CCCCC3CCSS3)CC2)c1)c1cccs1` (stereo not drawn) [Example 16] gave a pIC50 of over 5.35.
